Measurements taken from the supplement of paper PMC11732987, “Enantioselective OTUD7B fragment discovery through chemoproteomics screening and high-throughput optimisation” (Communications Chemistry, 2025).
The list shows a part of the results. The data scatter; read single values as rough.

The chains behind the UniProt entries cited, without tags or fusion partners. Where a name states a change or a piece, a line headed by the entry shows the natural chain unless it says otherwise. Residues count along the entry.
UniProt O15169: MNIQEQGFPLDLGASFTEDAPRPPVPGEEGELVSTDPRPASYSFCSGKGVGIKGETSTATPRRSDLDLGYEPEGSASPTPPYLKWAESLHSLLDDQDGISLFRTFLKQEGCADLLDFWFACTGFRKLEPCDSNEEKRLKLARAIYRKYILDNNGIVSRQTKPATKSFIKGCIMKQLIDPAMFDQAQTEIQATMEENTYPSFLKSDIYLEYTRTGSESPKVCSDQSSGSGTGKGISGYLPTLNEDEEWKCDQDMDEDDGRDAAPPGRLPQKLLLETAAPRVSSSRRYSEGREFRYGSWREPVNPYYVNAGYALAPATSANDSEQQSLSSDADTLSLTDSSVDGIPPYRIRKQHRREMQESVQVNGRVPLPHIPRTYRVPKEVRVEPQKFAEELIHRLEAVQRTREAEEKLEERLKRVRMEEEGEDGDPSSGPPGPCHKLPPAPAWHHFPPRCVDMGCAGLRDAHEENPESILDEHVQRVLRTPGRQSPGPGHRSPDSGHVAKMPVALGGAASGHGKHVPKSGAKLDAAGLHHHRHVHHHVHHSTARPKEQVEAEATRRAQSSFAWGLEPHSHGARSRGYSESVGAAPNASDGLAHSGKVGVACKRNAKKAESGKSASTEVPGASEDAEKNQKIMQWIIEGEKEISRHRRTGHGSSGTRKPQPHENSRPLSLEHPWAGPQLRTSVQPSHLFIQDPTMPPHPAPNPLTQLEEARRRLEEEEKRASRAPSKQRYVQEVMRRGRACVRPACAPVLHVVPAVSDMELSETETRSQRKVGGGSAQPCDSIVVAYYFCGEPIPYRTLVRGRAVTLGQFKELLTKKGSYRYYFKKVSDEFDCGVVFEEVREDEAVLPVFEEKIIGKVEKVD
UniProt Q8WY36: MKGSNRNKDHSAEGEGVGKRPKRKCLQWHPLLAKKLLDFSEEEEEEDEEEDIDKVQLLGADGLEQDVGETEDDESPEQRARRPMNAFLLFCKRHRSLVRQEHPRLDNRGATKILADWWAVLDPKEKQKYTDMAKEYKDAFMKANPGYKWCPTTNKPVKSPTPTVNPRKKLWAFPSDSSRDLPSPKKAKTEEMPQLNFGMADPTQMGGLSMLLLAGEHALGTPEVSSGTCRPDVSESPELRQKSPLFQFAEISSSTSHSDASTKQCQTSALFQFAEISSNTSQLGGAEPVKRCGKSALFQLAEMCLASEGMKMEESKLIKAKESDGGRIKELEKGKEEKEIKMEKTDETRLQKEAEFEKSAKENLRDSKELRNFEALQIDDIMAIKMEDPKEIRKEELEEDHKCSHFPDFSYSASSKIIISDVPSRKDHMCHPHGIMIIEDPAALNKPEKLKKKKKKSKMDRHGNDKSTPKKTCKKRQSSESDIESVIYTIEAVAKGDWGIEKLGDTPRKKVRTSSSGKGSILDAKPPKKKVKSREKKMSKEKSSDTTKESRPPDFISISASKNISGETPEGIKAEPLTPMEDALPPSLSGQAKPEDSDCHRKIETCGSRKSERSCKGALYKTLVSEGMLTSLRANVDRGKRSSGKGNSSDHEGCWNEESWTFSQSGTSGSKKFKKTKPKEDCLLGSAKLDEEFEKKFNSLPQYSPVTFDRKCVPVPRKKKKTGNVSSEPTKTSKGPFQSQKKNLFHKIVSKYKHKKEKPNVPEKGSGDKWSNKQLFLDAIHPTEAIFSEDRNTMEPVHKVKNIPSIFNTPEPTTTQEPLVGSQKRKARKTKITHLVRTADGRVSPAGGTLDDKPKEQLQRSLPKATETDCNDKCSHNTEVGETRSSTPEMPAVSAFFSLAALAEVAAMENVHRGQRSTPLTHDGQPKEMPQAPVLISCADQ
UniProt Q9NSY1: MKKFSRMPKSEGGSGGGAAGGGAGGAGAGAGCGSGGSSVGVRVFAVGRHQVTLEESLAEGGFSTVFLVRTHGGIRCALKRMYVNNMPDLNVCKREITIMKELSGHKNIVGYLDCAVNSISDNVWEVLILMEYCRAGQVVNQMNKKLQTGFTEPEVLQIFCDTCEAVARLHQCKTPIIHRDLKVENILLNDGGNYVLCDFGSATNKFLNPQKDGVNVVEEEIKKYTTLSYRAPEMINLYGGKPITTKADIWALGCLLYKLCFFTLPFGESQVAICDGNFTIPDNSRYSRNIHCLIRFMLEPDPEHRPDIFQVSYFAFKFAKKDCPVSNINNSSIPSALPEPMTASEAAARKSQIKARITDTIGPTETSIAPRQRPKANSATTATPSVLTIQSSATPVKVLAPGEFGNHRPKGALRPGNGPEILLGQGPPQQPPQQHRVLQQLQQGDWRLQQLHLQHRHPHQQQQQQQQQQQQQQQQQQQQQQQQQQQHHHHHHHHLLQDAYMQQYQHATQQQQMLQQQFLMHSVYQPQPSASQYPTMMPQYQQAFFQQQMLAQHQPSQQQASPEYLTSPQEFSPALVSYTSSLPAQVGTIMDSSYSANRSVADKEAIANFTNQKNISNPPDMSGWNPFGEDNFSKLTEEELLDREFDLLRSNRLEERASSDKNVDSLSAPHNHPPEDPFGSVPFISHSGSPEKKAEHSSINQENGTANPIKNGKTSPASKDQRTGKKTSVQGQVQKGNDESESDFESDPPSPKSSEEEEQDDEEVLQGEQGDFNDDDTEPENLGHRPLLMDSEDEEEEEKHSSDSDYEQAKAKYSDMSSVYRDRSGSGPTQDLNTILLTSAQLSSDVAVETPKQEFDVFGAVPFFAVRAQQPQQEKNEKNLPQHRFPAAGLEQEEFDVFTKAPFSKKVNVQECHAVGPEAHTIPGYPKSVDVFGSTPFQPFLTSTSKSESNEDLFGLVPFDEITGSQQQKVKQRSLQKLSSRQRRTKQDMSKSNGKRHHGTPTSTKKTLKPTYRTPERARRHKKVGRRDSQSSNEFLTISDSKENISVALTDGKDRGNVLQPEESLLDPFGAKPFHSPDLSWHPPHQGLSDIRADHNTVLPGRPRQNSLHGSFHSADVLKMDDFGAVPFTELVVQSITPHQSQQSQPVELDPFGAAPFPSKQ
UniProt Q93084: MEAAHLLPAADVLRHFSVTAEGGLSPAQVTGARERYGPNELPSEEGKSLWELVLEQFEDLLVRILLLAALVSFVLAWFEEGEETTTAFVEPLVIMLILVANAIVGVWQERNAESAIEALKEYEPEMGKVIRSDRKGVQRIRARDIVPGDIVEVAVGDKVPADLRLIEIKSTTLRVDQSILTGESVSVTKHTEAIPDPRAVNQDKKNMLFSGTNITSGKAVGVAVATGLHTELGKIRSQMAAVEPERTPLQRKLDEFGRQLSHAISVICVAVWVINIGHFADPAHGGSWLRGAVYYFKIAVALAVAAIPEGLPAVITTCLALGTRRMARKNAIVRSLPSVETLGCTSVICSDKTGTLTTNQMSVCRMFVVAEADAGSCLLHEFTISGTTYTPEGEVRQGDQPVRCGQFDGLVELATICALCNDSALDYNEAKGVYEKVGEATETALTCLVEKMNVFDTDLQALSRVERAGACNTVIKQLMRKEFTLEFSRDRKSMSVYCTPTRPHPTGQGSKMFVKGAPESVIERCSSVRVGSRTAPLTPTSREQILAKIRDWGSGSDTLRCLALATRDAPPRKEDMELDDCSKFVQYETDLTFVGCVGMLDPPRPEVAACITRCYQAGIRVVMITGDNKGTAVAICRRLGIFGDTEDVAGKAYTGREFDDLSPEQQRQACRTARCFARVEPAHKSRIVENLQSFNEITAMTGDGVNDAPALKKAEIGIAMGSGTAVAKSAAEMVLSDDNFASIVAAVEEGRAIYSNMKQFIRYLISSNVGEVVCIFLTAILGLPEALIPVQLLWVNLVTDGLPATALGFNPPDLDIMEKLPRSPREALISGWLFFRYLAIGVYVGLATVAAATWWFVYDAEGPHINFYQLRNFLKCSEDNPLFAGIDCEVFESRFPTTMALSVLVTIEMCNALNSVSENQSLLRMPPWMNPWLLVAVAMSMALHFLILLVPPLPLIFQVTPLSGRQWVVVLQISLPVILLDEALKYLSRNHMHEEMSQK
UniProt Q9NQS1, 313-335: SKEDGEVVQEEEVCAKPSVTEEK
UniProt O95260: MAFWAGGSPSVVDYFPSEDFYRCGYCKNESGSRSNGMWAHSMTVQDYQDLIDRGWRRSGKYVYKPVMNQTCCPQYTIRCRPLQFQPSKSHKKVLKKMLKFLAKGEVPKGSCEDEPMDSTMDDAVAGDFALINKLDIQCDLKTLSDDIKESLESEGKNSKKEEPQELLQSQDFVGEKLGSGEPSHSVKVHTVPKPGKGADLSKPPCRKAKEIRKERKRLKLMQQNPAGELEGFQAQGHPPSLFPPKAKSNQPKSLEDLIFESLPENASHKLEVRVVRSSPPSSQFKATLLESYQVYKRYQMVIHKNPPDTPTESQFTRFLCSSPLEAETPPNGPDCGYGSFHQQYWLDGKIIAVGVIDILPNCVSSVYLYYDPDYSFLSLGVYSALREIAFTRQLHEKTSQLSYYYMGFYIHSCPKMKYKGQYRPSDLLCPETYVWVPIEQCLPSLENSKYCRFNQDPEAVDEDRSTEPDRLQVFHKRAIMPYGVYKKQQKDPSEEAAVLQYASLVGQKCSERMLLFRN
UniProt Q96BY7: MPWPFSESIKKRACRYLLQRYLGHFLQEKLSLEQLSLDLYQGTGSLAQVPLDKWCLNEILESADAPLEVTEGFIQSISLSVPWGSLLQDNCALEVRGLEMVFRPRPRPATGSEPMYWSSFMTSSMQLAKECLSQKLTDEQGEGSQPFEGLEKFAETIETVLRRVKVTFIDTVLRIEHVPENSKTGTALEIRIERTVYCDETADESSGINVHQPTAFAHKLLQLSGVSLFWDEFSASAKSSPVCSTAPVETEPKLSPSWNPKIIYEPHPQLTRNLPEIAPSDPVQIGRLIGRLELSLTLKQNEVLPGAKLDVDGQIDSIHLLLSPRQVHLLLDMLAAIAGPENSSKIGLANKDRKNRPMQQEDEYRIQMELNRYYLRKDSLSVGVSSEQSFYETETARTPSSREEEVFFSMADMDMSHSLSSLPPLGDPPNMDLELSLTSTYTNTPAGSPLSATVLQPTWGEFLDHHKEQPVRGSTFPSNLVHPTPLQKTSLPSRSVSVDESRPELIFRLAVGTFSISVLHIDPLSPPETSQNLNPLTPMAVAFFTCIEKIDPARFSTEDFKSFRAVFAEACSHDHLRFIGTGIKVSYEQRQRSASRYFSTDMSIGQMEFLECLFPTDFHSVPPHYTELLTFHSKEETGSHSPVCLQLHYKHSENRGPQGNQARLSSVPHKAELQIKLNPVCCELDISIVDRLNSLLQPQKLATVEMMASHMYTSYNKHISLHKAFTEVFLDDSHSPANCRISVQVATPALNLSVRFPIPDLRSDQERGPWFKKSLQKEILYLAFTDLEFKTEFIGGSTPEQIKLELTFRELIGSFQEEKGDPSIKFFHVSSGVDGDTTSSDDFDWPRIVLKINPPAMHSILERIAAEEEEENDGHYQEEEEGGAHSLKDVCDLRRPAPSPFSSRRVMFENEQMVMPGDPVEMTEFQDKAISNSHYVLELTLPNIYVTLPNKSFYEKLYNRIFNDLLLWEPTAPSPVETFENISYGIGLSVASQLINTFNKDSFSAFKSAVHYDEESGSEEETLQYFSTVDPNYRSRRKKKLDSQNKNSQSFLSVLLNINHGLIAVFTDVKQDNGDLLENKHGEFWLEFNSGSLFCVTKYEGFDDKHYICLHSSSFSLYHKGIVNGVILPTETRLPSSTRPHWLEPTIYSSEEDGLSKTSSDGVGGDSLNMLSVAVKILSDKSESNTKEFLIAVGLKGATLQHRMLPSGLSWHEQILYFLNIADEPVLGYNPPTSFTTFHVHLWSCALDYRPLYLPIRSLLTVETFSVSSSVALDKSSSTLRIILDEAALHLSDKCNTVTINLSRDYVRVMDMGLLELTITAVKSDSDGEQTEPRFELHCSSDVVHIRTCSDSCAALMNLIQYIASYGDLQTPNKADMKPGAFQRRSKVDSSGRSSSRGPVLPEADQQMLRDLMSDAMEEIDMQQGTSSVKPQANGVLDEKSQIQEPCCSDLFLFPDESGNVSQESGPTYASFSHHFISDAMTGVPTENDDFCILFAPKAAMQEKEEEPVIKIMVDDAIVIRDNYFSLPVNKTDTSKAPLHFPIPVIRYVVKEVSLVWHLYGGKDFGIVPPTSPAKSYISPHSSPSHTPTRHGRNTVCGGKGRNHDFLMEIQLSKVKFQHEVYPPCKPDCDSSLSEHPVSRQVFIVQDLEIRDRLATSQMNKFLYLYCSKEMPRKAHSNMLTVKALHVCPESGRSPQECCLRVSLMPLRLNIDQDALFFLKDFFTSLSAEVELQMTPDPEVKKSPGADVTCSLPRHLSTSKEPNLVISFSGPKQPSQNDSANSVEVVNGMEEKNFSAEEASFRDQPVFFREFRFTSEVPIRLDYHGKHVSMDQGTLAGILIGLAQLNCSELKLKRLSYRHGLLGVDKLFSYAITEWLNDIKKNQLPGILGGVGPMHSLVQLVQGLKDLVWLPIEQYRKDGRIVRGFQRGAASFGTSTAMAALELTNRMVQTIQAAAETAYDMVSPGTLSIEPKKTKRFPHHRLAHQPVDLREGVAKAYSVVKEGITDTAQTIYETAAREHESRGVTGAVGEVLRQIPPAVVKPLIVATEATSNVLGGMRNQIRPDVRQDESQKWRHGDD

Compound: ClCC(=O)N[C@H]1CCCc2ccccc12
Assay: log2 mean competition ratio of IA-DTB cysteine labelling (DMSO/compound) (log2 ratio); higher = stronger cysteine engagement by compound
Conditions: 50 µM; treatment time: 4 h; cell line lysate: HEK293T
Description: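 IA-DTB competitive cysteine chemoproteomics in HEK293T RIPA lysate. Lysates were treated with compound 29 or 30 at 50 or 200 µM for 4 h, then IA-DTB (500 µM, 1 h), trypsin-digested, NeutrAvidin-enriched and analysed by diaPASEF. Competition ratio = intensity DMSO / intensity compound (n=4 treated, n=64 DMSO); binding: mean log2 CR ≥ 1 and p ≤ 0.05 plus QC filters. Target is the cysteine site.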

Row | Target | log2 mean competition ratio
1 | ATAD2 C1261 (UniProt Q6PL18) | 0.142
2 | BIRC6 C3830 | -0.258
3 | AXIN1 C221 (UniProt O15169) | -0.129
4 | BBX C150 (UniProt Q8WY36) | 0.407
5 | BBX C874 (UniProt Q8WY36) | -0.104
6 | ATP2A2 C498 (UniProt P16615) | -0.0166
7 | BMP2K C92 (UniProt Q9NSY1) | 0.383
8 | BAHCC1 C2578 (UniProt Q9P281) | -0.265
9 | ATP2A3 C636 (UniProt Q93084) | 0.48
10 | AVEN C169 (UniProt Q9NQS1) | -0.158
11 | BCOR C979 (UniProt Q6W2J9) | 0.37
12 | BCORL1 C972 (UniProt Q5H9F3) | -0.124
13 | BIRC6 C4443 | -0.193
14 | ATE1 C205 (UniProt O95260) | 0.219
15 | ATP2B4 C639 (UniProt P23634) | -0.0549
16 | BCAS3 C139 (UniProt Q9H6U6) | 0.258
17 | ASPH C384 (UniProt Q12797) | -0.429
18 | ATG2B C739 (UniProt Q96BY7) | -0.244
19 | AVEN C326 (UniProt Q9NQS1) | 0.0196
20 | BAHD1 C535 (UniProt Q8TBE0) | 0.0994

Same assay, conditions: 200 µM; treatment time: 4 h; cell line lysate: HEK293T

Row | Target | log2 mean competition ratio
21 | ATAD2 C1261 (UniProt Q6PL18) | 0.131
22 | BIRC6 C3830 | 0.174
23 | AXIN1 C221 (UniProt O15169) | 0.358
24 | BBX C150 (UniProt Q8WY36) | -0.0916
25 | BBX C874 (UniProt Q8WY36) | 0.0772
26 | ATP2A2 C498 (UniProt P16615) | -0.0852
27 | BMP2K C92 (UniProt Q9NSY1) | 0.0563
28 | BAHCC1 C2578 (UniProt Q9P281) | -0.154
29 | ATP2A3 C636 (UniProt Q93084) | -0.0452
30 | AVEN C169 (UniProt Q9NQS1) | -0.0679
31 | BCOR C979 (UniProt Q6W2J9) | 0.249
32 | BCORL1 C972 (UniProt Q5H9F3) | 0.183
33 | BIRC6 C4443 | -0.0142
34 | ATE1 C205 (UniProt O95260) | -0.238
35 | ATP2B4 C639 (UniProt P23634) | 0.176
36 | BCAS3 C139 (UniProt Q9H6U6) | 0.125
37 | ASPH C384 (UniProt Q12797) | 0.252
38 | ATG2B C739 (UniProt Q96BY7) | 0.0482
39 | AVEN C326 (UniProt Q9NQS1) | -0.348
40 | BAHD1 C535 (UniProt Q8TBE0) | -0.012
